The supplement of paper PMC6411743
± gives the standard deviation of the averaged measurements. Only a part is listed here, and it is no random draw. Most values lie at the level of the controls, where differences are scatter.

By UniProt entry, the sequences of proteins in these tests, tags left out. Where a name states a change or a piece, a line headed by the entry shows the natural chain unless it says otherwise.
UniProt Q9NX55: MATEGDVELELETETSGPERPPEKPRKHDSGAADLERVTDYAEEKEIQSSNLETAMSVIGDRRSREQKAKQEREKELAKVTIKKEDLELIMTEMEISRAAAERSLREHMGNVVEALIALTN
UniProt Q9NXH9: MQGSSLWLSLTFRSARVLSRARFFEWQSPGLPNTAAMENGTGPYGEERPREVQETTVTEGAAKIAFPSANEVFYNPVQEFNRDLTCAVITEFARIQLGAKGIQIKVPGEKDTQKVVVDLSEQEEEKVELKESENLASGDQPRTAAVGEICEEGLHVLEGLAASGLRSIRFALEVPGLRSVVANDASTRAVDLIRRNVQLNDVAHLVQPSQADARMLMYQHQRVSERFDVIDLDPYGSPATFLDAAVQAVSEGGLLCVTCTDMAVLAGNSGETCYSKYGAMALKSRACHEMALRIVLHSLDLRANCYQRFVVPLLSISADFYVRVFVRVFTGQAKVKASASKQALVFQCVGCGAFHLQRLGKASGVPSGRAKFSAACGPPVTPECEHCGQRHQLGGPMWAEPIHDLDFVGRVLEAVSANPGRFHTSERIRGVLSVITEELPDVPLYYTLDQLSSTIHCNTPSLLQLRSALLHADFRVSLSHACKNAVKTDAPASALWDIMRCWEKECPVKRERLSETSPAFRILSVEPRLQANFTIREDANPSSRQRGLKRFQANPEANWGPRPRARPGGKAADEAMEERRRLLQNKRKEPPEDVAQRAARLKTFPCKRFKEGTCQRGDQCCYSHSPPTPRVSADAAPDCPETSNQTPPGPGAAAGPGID
UniProt Q9NTJ3, whole entry: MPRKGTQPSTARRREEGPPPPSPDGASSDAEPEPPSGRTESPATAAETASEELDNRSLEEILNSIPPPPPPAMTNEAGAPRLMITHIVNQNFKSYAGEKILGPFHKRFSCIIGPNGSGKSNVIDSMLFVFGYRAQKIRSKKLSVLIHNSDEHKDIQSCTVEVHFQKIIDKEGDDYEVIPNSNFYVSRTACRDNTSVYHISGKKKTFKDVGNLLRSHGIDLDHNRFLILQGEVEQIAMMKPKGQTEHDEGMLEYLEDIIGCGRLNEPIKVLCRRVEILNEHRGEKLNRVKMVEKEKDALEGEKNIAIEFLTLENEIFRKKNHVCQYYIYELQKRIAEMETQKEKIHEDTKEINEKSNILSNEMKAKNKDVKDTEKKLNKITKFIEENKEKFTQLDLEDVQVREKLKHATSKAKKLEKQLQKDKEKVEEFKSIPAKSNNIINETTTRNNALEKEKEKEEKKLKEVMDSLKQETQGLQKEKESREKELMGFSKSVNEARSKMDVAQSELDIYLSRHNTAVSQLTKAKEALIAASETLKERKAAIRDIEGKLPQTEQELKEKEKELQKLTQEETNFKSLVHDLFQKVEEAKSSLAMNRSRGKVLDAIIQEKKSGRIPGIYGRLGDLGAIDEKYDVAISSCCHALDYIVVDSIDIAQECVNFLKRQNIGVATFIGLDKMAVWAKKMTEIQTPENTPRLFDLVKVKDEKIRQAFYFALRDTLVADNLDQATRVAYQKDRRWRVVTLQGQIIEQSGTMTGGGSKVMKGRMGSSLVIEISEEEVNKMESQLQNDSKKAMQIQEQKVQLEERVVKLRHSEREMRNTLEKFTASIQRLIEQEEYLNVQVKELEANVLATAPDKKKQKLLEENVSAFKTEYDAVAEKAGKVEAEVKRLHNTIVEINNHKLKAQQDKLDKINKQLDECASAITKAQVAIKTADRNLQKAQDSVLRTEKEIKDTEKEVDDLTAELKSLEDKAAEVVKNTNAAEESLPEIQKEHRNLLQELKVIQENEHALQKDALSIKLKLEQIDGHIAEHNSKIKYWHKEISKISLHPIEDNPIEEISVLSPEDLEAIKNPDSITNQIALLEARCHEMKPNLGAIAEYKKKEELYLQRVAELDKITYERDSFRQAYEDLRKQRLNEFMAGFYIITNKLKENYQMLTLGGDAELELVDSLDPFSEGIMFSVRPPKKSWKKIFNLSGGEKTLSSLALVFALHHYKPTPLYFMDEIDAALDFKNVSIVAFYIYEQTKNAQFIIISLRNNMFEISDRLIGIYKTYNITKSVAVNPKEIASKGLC
UniProt Q9P1W8, whole entry: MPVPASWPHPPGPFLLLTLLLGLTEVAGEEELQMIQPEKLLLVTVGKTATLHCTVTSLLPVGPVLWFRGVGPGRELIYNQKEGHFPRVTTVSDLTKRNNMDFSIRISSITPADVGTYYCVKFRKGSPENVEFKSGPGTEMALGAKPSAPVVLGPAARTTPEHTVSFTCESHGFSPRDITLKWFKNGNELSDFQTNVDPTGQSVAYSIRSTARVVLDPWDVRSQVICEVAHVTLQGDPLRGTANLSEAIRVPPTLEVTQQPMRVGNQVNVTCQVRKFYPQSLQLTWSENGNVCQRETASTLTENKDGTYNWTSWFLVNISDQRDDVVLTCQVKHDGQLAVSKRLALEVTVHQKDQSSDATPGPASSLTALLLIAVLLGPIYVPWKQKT
UniProt Q9NWV8, whole entry: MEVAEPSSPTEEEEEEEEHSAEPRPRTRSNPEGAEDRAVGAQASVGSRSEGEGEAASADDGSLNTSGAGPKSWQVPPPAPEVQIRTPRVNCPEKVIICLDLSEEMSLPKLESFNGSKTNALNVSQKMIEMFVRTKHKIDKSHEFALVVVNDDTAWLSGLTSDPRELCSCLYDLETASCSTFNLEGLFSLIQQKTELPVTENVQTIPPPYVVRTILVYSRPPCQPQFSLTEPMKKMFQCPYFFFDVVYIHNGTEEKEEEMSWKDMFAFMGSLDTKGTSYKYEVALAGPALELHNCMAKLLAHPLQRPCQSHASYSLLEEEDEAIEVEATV
UniProt Q9NUP9: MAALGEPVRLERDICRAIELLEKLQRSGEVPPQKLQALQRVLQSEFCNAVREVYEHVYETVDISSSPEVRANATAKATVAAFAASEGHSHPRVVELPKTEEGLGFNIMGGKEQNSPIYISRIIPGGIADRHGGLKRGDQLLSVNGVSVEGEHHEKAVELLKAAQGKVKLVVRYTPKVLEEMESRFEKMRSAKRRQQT
UniProt Q9NQ88: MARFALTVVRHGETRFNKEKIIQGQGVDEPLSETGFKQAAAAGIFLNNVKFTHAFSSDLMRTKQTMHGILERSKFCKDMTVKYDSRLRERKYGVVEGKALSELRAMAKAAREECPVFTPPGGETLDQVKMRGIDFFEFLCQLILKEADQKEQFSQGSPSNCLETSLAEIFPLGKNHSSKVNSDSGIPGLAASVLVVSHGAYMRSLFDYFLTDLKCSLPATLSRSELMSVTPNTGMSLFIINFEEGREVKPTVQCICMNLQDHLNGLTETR
UniProt Q9NYV4, whole entry, looked up: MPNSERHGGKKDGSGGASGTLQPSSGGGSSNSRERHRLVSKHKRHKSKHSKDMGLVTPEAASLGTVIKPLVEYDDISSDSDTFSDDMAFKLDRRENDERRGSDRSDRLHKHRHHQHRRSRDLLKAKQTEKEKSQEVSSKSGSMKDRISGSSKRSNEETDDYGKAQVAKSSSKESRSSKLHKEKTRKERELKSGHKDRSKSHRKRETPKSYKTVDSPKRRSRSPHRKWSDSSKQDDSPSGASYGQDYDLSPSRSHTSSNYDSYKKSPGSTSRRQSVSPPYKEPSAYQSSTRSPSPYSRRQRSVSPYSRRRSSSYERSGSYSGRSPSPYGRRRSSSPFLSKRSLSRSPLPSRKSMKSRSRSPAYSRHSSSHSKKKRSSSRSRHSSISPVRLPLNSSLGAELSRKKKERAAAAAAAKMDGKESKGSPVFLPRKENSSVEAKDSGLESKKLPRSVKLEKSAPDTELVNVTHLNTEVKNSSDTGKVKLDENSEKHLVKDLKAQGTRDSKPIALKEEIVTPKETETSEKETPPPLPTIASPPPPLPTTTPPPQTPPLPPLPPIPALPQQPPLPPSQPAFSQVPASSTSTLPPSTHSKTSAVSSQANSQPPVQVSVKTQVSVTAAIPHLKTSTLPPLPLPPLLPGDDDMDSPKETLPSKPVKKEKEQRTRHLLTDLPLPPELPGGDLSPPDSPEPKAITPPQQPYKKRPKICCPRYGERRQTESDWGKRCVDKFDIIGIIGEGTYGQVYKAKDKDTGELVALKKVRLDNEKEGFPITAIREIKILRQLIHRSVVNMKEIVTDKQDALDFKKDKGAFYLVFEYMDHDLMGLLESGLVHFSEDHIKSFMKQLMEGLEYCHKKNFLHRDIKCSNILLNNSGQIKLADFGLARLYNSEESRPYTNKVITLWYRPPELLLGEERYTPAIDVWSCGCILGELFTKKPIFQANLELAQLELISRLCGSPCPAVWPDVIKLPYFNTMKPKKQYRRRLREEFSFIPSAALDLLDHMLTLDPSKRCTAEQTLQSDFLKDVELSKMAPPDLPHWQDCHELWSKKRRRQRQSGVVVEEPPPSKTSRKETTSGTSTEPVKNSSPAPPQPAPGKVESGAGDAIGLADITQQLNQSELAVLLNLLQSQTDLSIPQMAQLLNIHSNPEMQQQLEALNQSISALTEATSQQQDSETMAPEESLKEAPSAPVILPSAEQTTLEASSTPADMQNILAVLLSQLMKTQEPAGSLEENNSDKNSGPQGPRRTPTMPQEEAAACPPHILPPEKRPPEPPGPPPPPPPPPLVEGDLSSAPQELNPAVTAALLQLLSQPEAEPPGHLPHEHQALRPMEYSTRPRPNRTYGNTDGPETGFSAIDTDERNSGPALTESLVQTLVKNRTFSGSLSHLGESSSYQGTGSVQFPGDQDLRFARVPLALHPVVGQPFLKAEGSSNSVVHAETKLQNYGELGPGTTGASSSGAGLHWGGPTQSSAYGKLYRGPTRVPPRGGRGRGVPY
UniProt Q9NRG0: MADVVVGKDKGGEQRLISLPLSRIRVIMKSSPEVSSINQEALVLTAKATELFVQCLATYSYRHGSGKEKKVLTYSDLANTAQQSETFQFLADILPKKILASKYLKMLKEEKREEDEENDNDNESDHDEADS
UniProt Q9NYU2: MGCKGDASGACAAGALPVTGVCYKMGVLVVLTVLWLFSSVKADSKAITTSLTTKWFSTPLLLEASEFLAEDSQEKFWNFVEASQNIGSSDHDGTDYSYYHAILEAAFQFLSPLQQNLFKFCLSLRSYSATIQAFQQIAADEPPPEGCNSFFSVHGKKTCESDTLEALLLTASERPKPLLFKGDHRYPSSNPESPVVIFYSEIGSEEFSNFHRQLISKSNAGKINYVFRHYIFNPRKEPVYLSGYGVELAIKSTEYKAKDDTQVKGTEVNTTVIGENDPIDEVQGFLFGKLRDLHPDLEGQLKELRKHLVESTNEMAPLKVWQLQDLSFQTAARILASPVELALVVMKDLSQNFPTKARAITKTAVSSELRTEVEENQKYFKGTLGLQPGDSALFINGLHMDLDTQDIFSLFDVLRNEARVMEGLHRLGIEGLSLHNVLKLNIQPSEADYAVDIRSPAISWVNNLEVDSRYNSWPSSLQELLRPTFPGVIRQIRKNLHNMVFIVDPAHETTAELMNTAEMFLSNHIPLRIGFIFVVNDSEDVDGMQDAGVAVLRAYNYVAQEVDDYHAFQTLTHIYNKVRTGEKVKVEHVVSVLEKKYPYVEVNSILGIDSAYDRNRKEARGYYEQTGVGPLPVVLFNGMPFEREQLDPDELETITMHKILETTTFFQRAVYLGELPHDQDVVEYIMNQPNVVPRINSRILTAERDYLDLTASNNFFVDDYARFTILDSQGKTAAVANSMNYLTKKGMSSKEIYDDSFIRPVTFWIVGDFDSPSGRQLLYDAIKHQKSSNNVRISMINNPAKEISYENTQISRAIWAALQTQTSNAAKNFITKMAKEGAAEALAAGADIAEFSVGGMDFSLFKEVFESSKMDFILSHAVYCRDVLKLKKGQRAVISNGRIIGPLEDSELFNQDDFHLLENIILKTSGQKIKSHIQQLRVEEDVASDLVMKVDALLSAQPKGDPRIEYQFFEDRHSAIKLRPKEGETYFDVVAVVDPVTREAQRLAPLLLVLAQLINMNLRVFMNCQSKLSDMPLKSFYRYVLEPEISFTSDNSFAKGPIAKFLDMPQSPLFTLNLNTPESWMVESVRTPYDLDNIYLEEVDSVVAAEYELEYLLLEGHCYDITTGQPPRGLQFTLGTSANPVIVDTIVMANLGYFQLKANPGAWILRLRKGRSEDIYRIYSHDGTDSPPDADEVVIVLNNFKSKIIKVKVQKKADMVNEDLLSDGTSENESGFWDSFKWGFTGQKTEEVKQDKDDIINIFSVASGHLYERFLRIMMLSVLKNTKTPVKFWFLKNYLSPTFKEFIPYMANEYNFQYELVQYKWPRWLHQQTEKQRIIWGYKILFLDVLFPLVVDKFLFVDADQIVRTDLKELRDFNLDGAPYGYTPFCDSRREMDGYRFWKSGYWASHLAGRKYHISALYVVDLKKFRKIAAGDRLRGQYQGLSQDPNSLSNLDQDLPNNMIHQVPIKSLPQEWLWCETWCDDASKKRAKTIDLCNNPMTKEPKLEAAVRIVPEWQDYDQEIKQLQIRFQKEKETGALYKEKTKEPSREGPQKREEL

Compound: Nc1ncnc2c1ncn2[C@@H]1O[C@H](COP(=O)(O)OP(=O)(O)NP(=O)(O)O)[C@@H](O)[C@H]1O [adenylyl imidodiphosphate]
Assay: NP40-soluble protein abundance relative to vehicle (solubility fold change) (ratio); higher = more soluble protein in presence of AMP-PNP
How it was run: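 Jurkat crude lysate prepared with a Dounce homogeniser was treated at eight concentrations spanning 0.1 to 10 mM, 10 min at room temperature then 3 min at 37 °C. Solubilisation with 0.8% NP40 and benzonase and ultracentrifugation preceded TMT labelling of the supernatant for LC-MS/MS. Fold change against the detergent-processed vehicle was determined per replicate from vsn-normalised intensities, across three independent experiments.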

Target	NP40-soluble protein abundance (concentration: 0.1mM)	NP40-soluble protein abundance (concentration: 0.5mM)
MED17 (UniProt Q9NVC6)	0.977 ± 0.027	0.942 ± 0.062
LANCL2 (UniProt Q9NS86)	0.977 ± 0.046	0.9796 ± 0.0095
UniProt Q9NX55	1.012 ± 0.0078	1.01 ± 0.028
FAM114A2 (UniProt Q9NRY5)	1.01 ± 0.057	1.01 ± 0.025
UniProt Q9NXH9 and related entries	1.01 ± 0.042	0.982 ± 0.034
SACM1L (UniProt Q9NTJ5)	1.03 ± 0.068	0.99 ± 0.053
CHMP5 (UniProt Q9NZZ3)	0.984 ± 0.08	0.966 ± 0.097
FAM120C (UniProt Q9NX05)	1.01 ± 0.029	0.978 ± 0.032
SMC4 (UniProt Q9NTJ3)	0.991 ± 0.011	1 ± 0.032
UniProt Q9P1W8 and related entries	1.014 ± 0.0077	0.998 ± 0.024
UniProt Q9NWV8	1 ± 0.03	0.983 ± 0.012
UniProt Q9NUP9	1.04 ± 0.022	0.992 ± 0.054
UniProt Q9NQ86-4|E9PBG3 and related entries	0.9516 ± 0.0068	0.972 ± 0.043
UniProt Q9P2R3 and related entries	1.01 ± 0.011	0.988 ± 0.031
UniProt Q9P0K8 and related entries	0.9754 ± 0.0063	0.966 ± 0.03
NANS (UniProt Q9NR45)	0.9862 ± 0.0088	0.986 ± 0.045
UniProt Q9NQ88	1 ± 0.015	1.01 ± 0.029
UniProt Q9P2D3 and related entries	1.01 ± 0.017	1.01 ± 0.027
UniProt Q9NYV4 and related entries	0.995 ± 0.029	1.02 ± 0.055
UniProt Q9NRG0 and related entries	1.02 ± 0.021	1.04 ± 0.065
OCIAD1 (UniProt Q9NX40)	0.989 ± 0.021	1.02 ± 0.041
UniProt Q9NYU2 and related entries	1.02 ± 0.036	0.985 ± 0.072

Some of the entries above, reformatted.
Target,NP40-soluble protein abundance (concentration: 0.1mM),NP40-soluble protein abundance (concentration: 0.5mM)
UniProt Q9P1W8 and related entries,1.014 ± 0.0077,0.998 ± 0.024
UniProt Q9NWV8,1 ± 0.03,0.983 ± 0.012
UniProt Q9NUP9,1.04 ± 0.022,0.992 ± 0.054
UniProt Q9NQ86-4|E9PBG3 and related entries,0.9516 ± 0.0068,0.972 ± 0.043
UniProt Q9P2R3 and related entries,1.01 ± 0.011,0.988 ± 0.031
